Experiment [1] addresses GST-β-catenin fusion protein (mouse) (UniProt Q02248). Briefly: GST pull-down on glutathione-Sepharose 4B, SDS-PAGE and autoradiography.
For experiment [2], the target named is GAL4-β-catenin fusion protein (GAL4 BD fused with mouse β-catenin armadillo domain, residues 128 to 683) (yeast; mouse) (UniProt P04386+Q02248). Briefly: yeast two-hybrid, β-galactosidase activity.

Sequences of proteins named here, by UniProt entry; tags and fusion partners are left off.
UniProt Q02248: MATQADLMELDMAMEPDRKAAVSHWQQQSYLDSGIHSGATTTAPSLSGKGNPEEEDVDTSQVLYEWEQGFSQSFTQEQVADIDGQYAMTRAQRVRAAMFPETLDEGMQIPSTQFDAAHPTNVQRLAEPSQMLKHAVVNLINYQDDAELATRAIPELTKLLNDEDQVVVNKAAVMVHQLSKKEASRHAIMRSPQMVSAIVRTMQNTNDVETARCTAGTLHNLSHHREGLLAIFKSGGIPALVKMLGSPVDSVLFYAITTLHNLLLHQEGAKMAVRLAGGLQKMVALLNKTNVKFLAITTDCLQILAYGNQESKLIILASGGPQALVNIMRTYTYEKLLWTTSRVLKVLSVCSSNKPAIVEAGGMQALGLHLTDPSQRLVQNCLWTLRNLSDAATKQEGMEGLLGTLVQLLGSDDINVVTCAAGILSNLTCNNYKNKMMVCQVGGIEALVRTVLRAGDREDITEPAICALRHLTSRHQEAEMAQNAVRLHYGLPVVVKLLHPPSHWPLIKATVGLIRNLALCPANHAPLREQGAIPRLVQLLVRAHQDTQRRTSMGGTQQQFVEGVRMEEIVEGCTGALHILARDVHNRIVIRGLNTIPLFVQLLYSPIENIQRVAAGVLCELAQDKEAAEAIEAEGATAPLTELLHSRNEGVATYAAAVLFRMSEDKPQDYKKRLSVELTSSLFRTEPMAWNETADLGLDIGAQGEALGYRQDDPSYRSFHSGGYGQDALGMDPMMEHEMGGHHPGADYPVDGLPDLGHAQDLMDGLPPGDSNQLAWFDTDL

This passage reports binding results from patent publication US20040073001A1.

No constants are given. Whether binding was seen depends on the method and setting. For some assays here: Binding seen in cells or lysates may run through a third protein. Some entries that bind do so weakly or less than the wild type. For some assays here: Tags and fused reporters may be left off the sequences shown.

B1: 35S-labeled B9L protein (SEQ ID NO: 4), made by in vitro transcription and translation (protein)
chain: LANTAAEAVLQGRAESILAYHQQNVPRAKLDQAPKVPPTPEPLPLNTPSAGTPQSQPPPLPPPPPAPGSAPPALPPEGPPEDTSQDLAPNSVGAASTGGGTGGTHPNTPTAATANNPLPPGGDPGSAPGSALLGEATPTGNGQRNLVGSEGLSKEQLEHRERSLQTLRDIERLLLRSGETEPFLKGPPGGAGEGGPPAQAPSAAQPPPSAPPGGLKKYEEPLQSMISQTQSLGGPPLEHEVPGHPQGGDMGQQMNMMMQRLGQDSLTPEQVAWRKLQEEYYEEKRRKEEQIGLHGGRPLQDMVGMGGMMGRGPPPPYHSK
modifications: 35S-labeled methionine
As to B1, the binding entry in experiment [1] is “binds”.

B2: GAL4 AD fusion of the partial fragment (244-410) of human bc19 protein (protein, UniProt O00512 244-410, looked up, not shown: large carriers)
chain: QDQNSSQNTRLQPTPPIPAPAPKPAAPPRPLDRESPGVENKLIPSVGSPASSTPLPPDGTGPNSTPNNRAVTPVSQGSNSSSADPKAPPPPPVSSGEPPTLGENPDGLSQEQLEHRERSLQTLRDIQRMLFPDEKEFTGAQSGGPQQNPGVLDGPQKKPEGPIQAMM
On to B2, for which the binding entry in experiment [2] was “binds”.
